Test results taken from article PMC12670160, “A drug-repurposing screen of FDA- and EMA-approved drugs identifies two NF-κB inhibitors active against eumycetoma” (Journal of Antimicrobial Chemotherapy, 2025).
Where a name gives a salt, the structure may show the parent alone. Screen size: about 5,300 compounds; about 130 (2.5%) showed an effect of 50% or more. This is one part of the list. Bridge positions count the residues as written; N and C are the ends. Square brackets hold non-standard residues; d marks the D form. Peptide text beside a SMILES is read from it. * marks the point of attachment. ξ: configuration not given here. Heptanoyl(6-Me) = CC(C)CCCCC(=O)*; ξDab = NCCC(N)C(=O)O; ξT = CC(O)C(N)C(=O)O

test system: M. mycetomatis strain mm55; details: primary screen, metabolic activity vs growth control; 96 h, 2 µM; inhibitor

Row | Compound | % viability [%]
1 | O=C(O)Cc1ccc(OCc2ccccc2)c(Cl)c1 [ONC0002166, benzofenac] | 78.33
2 | Cc1ccccc1N(C)C(=O)c1ccc([S+]([O-])c2nccs2)c([N+](=O)[O-])c1 (stereo not drawn) [ONC0002619, sb268262] | 108.4
3 | CCOC(=O)OC(C)OC(=O)[C@@H]1N2C(=O)[C@@H](NC(=O)[C@H](N)c3ccccc3)[C@H]2SC1(C)C (stereo partly drawn) [ONC0003112, bacampicillin hydrochloride] | 79.97
4 | O=Cc1ccc(CO)o1 [ONC0002787, 5hydroxymethylfuran2carbaldehyde] | 74.71
5 | CCN[C@@H]1C[C@H](C)S(=O)(=O)c2sc(S(N)(=O)=O)cc21 [ONC0004566, dorzolamide hcl] | 57.78
6 | CCNC(=O)N1CCN(CCCC(c2ccc(F)cc2)c2ccc(F)cc2)CC1 [ONC0003498, amperozidehcl] | 32.95
7 | C[C@@H](N[C@H]1CCCC[C@@H]1NC(=O)c1ccc(Cl)cc1)c1cccc2ccccc12 [ONC0003067, calhex231] | 73.79
8 | O=C(N/N=C/c1ccc([N+](=O)[O-])o1)c1cc([N+](=O)[O-])cc([N+](=O)[O-])c1O [ONC0004091, nifursol] | 114
9 | C[C@]12CC[C@H]3[C@@H](CC[C@@]45O[C@@H]4C(O)=C(C#N)C[C@]35C)[C@@H]1CC[C@@H]2O [ONC0004250, trilostane] | 70.27
10 | Cc1nc(NC(=O)N2CCC[C@H]2C(N)=O)sc1-c1csc(C(C)(C)C)n1 [ONC0000145, a66] | 101.1
11 | Nn1cnc2cc3ccccc3cc2c1=O [ONC0002560, centazolone] | 70.03
12 | COC1=C(OC)C(=O)C(CCCCCCCCCCO)=C(C)C1=O [ONC0004071, idebenone] | 145.4
13 | CCOC(=O)[C@H](CCc1ccccc1)N[C@H]1CCc2ccccc2N(CC(=O)O)C1=O [ONC0004295, benazepril hydrochloride] | 87.99
14 | COc1cccc(-n2nc(C(=O)O)cc2-c2ccc(C3CCCCC3)c(Cl)c2)c1 [ONC0000173, tclpa54] | 91.44
15 | CC1(C)[C@@H]2C[C@@H](O)[C@@](C)(O)[C@H]1C2 [ONC0002949, 266trimethylbicyclo311heptane23diol] | 64.26
16 | C/C=C/C1=C(C(=O)O)N2C(=O)[C@@H](NC(=O)[C@H](N)c3ccc(O)cc3)[C@H]2SC1 [ONC0004213, cefprozil] | 75.17
17 | Cn1cc(-c2ccc(F)c(C(F)(F)F)c2)nc1C1CCN(c2ncnc3[nH]ncc23)CC1 [ONC0005261, ly2584702 tosylate] | 149.4
18 | COC(=O)c1cnn(-c2ccc(F)cc2F)c1/C=N/NC(=S)NC(C)(C)C [ONC0001614, cid2745687] | 66.77
19 | CN1CCCC(n2nc(Cc3ccc(Cl)cc3)c3ccccc3c2=O)CC1 (stereo not drawn) [ONC0004220, azelastine hydrochloride] | 63.48

In the list so far, these contain fluorine.
Row | Compound | % viability [%]
6 | CCNC(=O)N1CCN(CCCC(c2ccc(F)cc2)c2ccc(F)cc2)CC1 [ONC0003498, amperozidehcl] | 32.95
17 | Cn1cc(-c2ccc(F)c(C(F)(F)F)c2)nc1C1CCN(c2ncnc3[nH]ncc23)CC1 [ONC0005261, ly2584702 tosylate] | 149.4
18 | COC(=O)c1cnn(-c2ccc(F)cc2F)c1/C=N/NC(=S)NC(C)(C)C [ONC0001614, cid2745687] | 66.77

A draw from above in order of count of non-hydrogen atoms, rising:
Row | Compound | % viability [%]
15 | CC1(C)[C@@H]2C[C@@H](O)[C@@](C)(O)[C@H]1C2 [ONC0002949, 266trimethylbicyclo311heptane23diol] | 64.26
11 | Nn1cnc2cc3ccccc3cc2c1=O [ONC0002560, centazolone] | 70.03
14 | COc1cccc(-n2nc(C(=O)O)cc2-c2ccc(C3CCCCC3)c(Cl)c2)c1 [ONC0000173, tclpa54] | 91.44

Further structures.

Row | Compound | % viability [%]
20 | O=C(CNC(=O)c1ccc(Cl)cc1)NO [ONC0003964, benurestat] | 71.17
21 | CN1CCCC1c1cccnc1 (stereo not drawn) [ONC0005499, nicotine bitartrate] | 91
22 | FC(F)(F)C(F)(F)C(F)(F)C(F)(F)C(F)(F)C(F)(F)C(F)(F)C(F)(F)Br [ONC0003656, 1bromoperfluorooctane] | 62.54
23 | O=c1oc(-c2ccc(C(F)(F)F)cc2)nn1Cc1cc(Cl)ccc1O [ONC0003641, bms191011] | 95.63
24 | CC(C)CCCCC(=O)NC(CCN)C(=O)NC(C(=O)NC(CCN)C(=O)NC1CCNC(=O)C(C(C)O)NC(=O)C(CCN)NC(=O)C(CCN)NC(=O)[C@H](CC(C)C)NC(=O)[C@@H](CC(C)C)NC(=O)C(CCN)NC1=O)C(C)O (stereo partly drawn) [ONC0001976, colistin sulfate] ({Heptanoyl(6-Me)}-[ξDab][ξT][ξDab][ξDab][ξDab][dL]L[ξDab][ξDab][ξT]; lactam 4-C) | 104.9
25 | COc1ccc(C(=O)N2CCCc3cc(C4=NNC(=O)SC4C)ccc32)cc1OC (stereo not drawn) [ONC0003273, emd53998] | 63.82
26 | CCCC(=O)Nc1ncnc2c1ncn2[C@@H]1O[C@@H]2COP(=O)(O)O[C@H]2[C@H]1OC(=O)CCC [ONC0003102, bucladesine sodium] | 84.05
27 | CN(C)CCC[C@@]1(c2ccc(F)cc2)OCc2cc(C#N)ccc21 [ONC0004016, escitalopram oxalate] | 68.38
28 | CC1=CC(=O)NS(=O)(=O)O1 [ONC0005569, acesulfame potassium] | 46
29 | CC(C)c1ccc(C(=O)NC(=N)N)cc1S(C)(=O)=O [ONC0004136, cariporide] | 93.97
30 | O=C(O[C@H]1CN2CCC1CC2)N1CCc2ccccc2[C@@H]1c1ccccc1 [ONC0005500, solifenacin succinate] | 90.93
31 | NC(=O)N/N=C/c1ccc([N+](=O)[O-])o1 [ONC0000465, nitrofurazone] | 62.24
32 | COc1ccc(-n2c(C)c([N+](=O)[O-])c3ccc(O)cc32)cc1 [ONC0005157, id8] | 120.6
33 | O=S(=O)(c1ccccc1)c1cnc2c(N3CCNCC3)cccc2c1 [ONC0004551, sb742457] | 64.91
34 | Cc1c(C(=O)NC2CCCCC2)sc2nc3ccc(N)cc3n12 [ONC0003595, ym298198desmethyl] | 135.5
35 | CC(C)C[C@H](NC(=O)[C@H](CCc1ccccc1)NC(=O)CN1CCOCC1)C(=O)N[C@@H](Cc1ccccc1)C(=O)N[C@@H](CC(C)C)C(=O)[C@@]1(C)CO1 [ONC0004468, carfilzomib pr171] | 121.2
36 | CCc1cncnc1N1CCN(Cc2nc3cc(C(F)(F)F)ccc3[nH]2)CC1 [ONC0001462, pf4708671] | 84.24
37 | CN1CCCCC1CCN1c2ccccc2Sc2ccc([S+](C)[O-])cc21 (stereo not drawn) [ONC0004505, mesoridazine besylate] | 56.6
38 | CCN(CC)CCOc1ccc(/C(=C(\Cl)c2ccccc2)c2ccccc2)cc1 [ONC0000352, clomiphene citrate] | 95.76

Row | Compound | % viability [%]
39 | CCOc1cc(C(C)(C)C)ccc1C1=NC(C)(c2ccc(Cl)cc2)C(C)(c2ccc(Cl)cc2)N1C(=O)N1CCN(CCCS(C)(=O)=O)CC1 (stereo not drawn) [ONC0004446, rg7112 ro5045337] | 112.9
40 | C[N+](C)(CF)CCO [ONC0002638, fluorocholine chloride] | 99.75
41 | COc1ccc(S(=O)(=O)N2c3ccc(Cl)cc3[C@](O)(c3ccccc3Cl)[C@@H]2C(=O)N2CCC[C@H]2C(N)=O)cc1OC [ONC0003085, relcovaptan] | 84.65
42 | O=C(O)C[C@H]1CC[C@H](c2ccc(NC(=O)c3nnc(Nc4ccc(F)c(F)c4)o3)cc2)CC1 [ONC0004431, azd3988] | 109
43 | CO[C@@H]1[C@@H](OC(N)=O)[C@@H](O)[C@H](Oc2ccc3c(O)c(NC(=O)c4ccc(O)c(CC=C(C)C)c4)c(=O)oc3c2C)OC1(C)C [ONC0000515, novobiocin sodium] | 68.02
44 | O=C1c2ccccc2-n2c1nc1ccccc1c2=O [ONC0003517, tryptanthrin] | 43.27
45 | COc1cccc(OC)c1-c1cc(C(=O)NC2(C(=O)O)C3CC4CC(C3)CC2C4)nn1-c1ccnc2cc(Cl)ccc12 (stereo not drawn) [ONC0005555, meclinertant] | 87.75
46 | Cc1ccc2c(-c3ccccc3)nc(=O)n(C(C)C)c2c1 [ONC0004100, proquazone] | 145.3
47 | C[N+]1([O-])[C@@H]2C[C@@H](OC(=O)[C@H](CO)c3ccccc3)C[C@H]1[C@@H]1O[C@@H]12 (stereo partly drawn) [ONC0002370, scopolaminenoxide] | 76.11
48 | CN(NC(=O)CC(=O)NN(C)C(=S)c1ccccc1)C(=S)c1ccccc1 [ONC0004916, elesclomol sta4783] | 92.53
49 | CC(C)[C@H](N)C(=O)OCCOCn1cnc2c(=O)[nH]c(N)nc21 [ONC0004144, valacyclovir hydrochloride] | 101.2
50 | CN(C)C(=N)N=C(N)N [ONC0004003, metformin hydrochloride] | 75.81
51 | CC[C@H](NC(C)C)[C@H](O)c1ccc(O)c2[nH]c(=O)ccc12 (racemic) [ONC0000846, procaterol] | 72.96
52 | CCN1CCN(C(=O)N[C@@H](C(=O)N[C@@H]2C(=O)N3[C@@H]2SC(C)(C)[C@@H]3C(=O)O)c2ccccc2)C(=O)C1=O [ONC0000492, piperacillin sodium] | 73.47
53 | NCCc1ccccn1 [ONC0003041, 2pyridylethylamine] | 110.5
54 | Cc1c(F)cc(C(=O)NC2CC2)cc1-c1c(F)cn2c(C(C)(C)C)nnc2c1F [ONC0000105, al8697] | 73.87
55 | O=[N+]([O-])c1ccccc1S(=O)(=O)NC[C@H]1CC[C@H](CNCC2CCc3ccccc3C2)CC1 (stereo partly drawn) [ONC0000121, ntncb] | 80.22
56 | Cc1cc(C(=O)Nc2cc(Oc3ccc4nc(NC(=O)C5CC5)cn4n3)ccc2C)n(C)n1 [ONC0000850, tak593] | 90.33
57 | CCC(CC)Nc1cc(C)nc(Oc2c(C)cc(C)cc2C)c1C [ONC0001981, cp376395] | 91.75
